Laboratory results as given in PubChem BioAssay AID540276 (National Center for Advancing Translational Sciences (NCATS), 2011).
Values joined by “and” are separate entries in the source; they are usually repeats but may differ in a detail not shown here. Equal entries are not always repeated. The campaign covered roughly 300,000 compounds. About 5,400 (1.8%) were called active. The shares of active, inactive and inconclusive entries below differ from those in the screen. The call rests on the fitted dose curve; tested in HEK293 cells. Where the call is inconclusive, the potency comes from a doubtful curve fit.

assay: qHTS for inhibitors of binding or entry into cells for Marburg Virus; settings: Marburg virus pseudotyped entry inhibition, cell reporter; activity change, negative = inhibition: at 37.8 µM (top of the series) unless noted
On the % scale 0 is the no-effect control and ±100 the full control effect; potency means the concentration at half of the fitted maximal effect.

Structure (SMILES)	activity change, negative = inhibition	Potency
COc1ccc(C(=O)N2CCCCC2)cc1S(=O)(=O)Nc1ccccc1	inactive: 13.7%	–
COc1cc2[nH]c(=S)n(Cc3ccccc3)c(=O)c2cc1OC	–	inconclusive: 5.62 µM [inhibitor, partial curve, poor fit]
O=c1[nH]c(SCc2ccc(Cl)cc2)nc2ccsc12	–	inconclusive: 35.5 µM [inhibitor, single point]
O=C(c1ccco1)N1CCC(c2nc3c(nnn3Cc3ccccc3Cl)c(=O)[nH]2)CC1	inactive: 7.11% [at 46.1 µM]	–
Cc1ccc(-c2nnn(CC(=O)N(c3ccccc3F)C(C(=O)NC3CCCC3)c3ccncc3)n2)o1 (stereo not drawn)	–	inconclusive: 11.2 µM [inhibitor, single point]
COc1ccc(Cl)cc1C(=O)NC1=NCCS1	–	inconclusive: 31.6 µM [activator, single point]
Cc1[nH]c(=S)[nH]c(=O)c1Cc1ccccc1	–	inactive
COCCCN1C(=O)c2ccc(C(=O)NCCc3ccccc3)cc2C1=O	–	inconclusive: 0.501 µM [activator, full curve]
O=C(/C(Br)=C/Nc1cc(Cl)ccc1Cl)C(F)(F)F	–	inconclusive: 35.5 µM [inhibitor, single point]
COCCNC(=S)N/N=C(\C)c1cccc(C(F)(F)F)c1	inactive: -6.5%	–
CCCN(CCC)S(=O)(=O)c1ccc(C(=O)Nc2ccc(OCC(=O)N3CCOCC3)cc2)cc1	inactive: 5.77%	–
Cc1cc(C)cc(C(=O)Nc2ccc(NC(=O)c3cccs3)cc2)c1	–	inconclusive: 20 µM [inhibitor, single point]
CCCS(=O)(=O)N1CCN(C(=O)c2cccs2)CC1	–	inconclusive: 1.46 µM [inhibitor, full curve, poor fit]
CCOC(=O)c1ccc(NC(=S)N(CCCN2CCCC(C)C2)Cc2ccco2)cc1 (stereo not drawn)	–	inconclusive: 16.4 µM [inhibitor, partial curve, poor fit]
O=C(C=Cc1cccc([N+](=O)[O-])c1)c1ccccc1	inactive: -27.2% [at 14.2 µM]	–
O=C(CNS(=O)(=O)c1ccc(Br)s1)Nc1ccc2c(c1)OCCO2	–	inconclusive: 5.8 µM [activator, partial curve]
CCCN(Cc1nnc(-c2ccccc2Cl)o1)C(=O)c1cc([N+](=O)[O-])cc([N+](=O)[O-])c1	–	inconclusive: 35.5 µM [inhibitor, single point]
CCN(Cc1ccccc1)C(=O)CN1C(=O)CSc2ccc(S(=O)(=O)N(CC)CC)cc21	–	inconclusive: 22.4 µM [inhibitor, single point]
Cc1ccc(/C=C/C(=O)OCC(=O)NCc2cccs2)o1	inactive: 17.9% [at 46.1 µM]	–
COc1ccc(S(=O)(=O)N2CCC(O)(c3ccc(Cl)cc3)CC2)cc1OC	–	inconclusive: 14.1 µM [inhibitor, partial curve, poor fit]
CC1=C(C(=O)Nc2ccccc2C)C(c2ccc(C)o2)C2=C(CCCC2=O)N1 (stereo not drawn)	inactive: 24.8%	–
CC(=O)N1CCN(CC(=O)Nc2ccccc2Sc2ccccc2)CC1	–	inconclusive: 35.5 µM [inhibitor, partial curve, poor fit]
COc1ccc(-c2c3c(nc4sc(C(=O)Nc5ccccc5F)c(N)c24)CC(C)(C)CC3=O)cc1	–	inconclusive: 10 µM [activator, partial curve, poor fit]

Structure (SMILES)	activity change, negative = inhibition	Potency
CCCC/C(O)=C1\C(=O)CC(C)(C)CC1=Nc1ccc(OC)cc1	–	inconclusive: 11.2 µM [inhibitor, partial curve, poor fit]
O=C(c1ccco1)N1CCN(c2nc(C(F)(F)F)nc3c2nnn3Cc2ccccc2)CC1	–	inconclusive: 23.1 µM [inhibitor, single point]
C/C(=N\OCC(=O)NC12CC3CC(CC(C3)C1)C2)c1cc2ccccc2o1	–	inconclusive: 35.5 µM [inhibitor, single point]
CCc1ccc(CNC(=O)c2nn(-c3ccc(OC)c(Cl)c3)c(=O)c3c2c2ccccc2n3C)cc1	–	inconclusive: 5.62 µM [activator, single point]
COc1cc(C(=O)OCCCN2CCCN(CCCOC(=O)c3cc(OC)c(OC)c(OC)c3)CC2)cc(OC)c1OC	–	active: 5.17 µM and active: 6.31 µM
Nc1ccc(-c2nc3ncccc3o2)c(Cl)c1	inactive: -25.4% [at 46.1 µM]	–
Nc1nc(SCC(=O)NCCC(c2ccccc2)c2ccccc2)n[nH]1	–	inconclusive: 20 µM [activator, single point]
CN1CCN(C(=O)C2CCC(=O)N(CCc3cccc(F)c3)C2)CC1 (stereo not drawn)	inactive: 12.8%	–
O=C(CSc1n[nH]c(-c2ccccn2)n1)Nc1ccccc1	–	inconclusive: 35.5 µM [inhibitor, single point]
COc1cccc2sc(NNC(=O)COc3ccccc3)nc12	inactive: 1.61%	–
CC(/C=C/c1ccccc1)=N\NC(=O)C1CC1(C)c1ccccc1 (stereo not drawn)	–	inconclusive: 29.1 µM [inhibitor, single point]
COC(=O)C1=C(C)NC(C)=C([N+](=O)[O-])C1c1ccccc1C(F)(F)F (stereo not drawn)	–	inconclusive: 35.5 µM [inhibitor, single point]
CCOc1ccc(N2C(=O)/C(=C/c3ccccn3)SC2=S)cc1	inactive: 0.96%	–
C/C=C/C(=O)OCC(=O)Nc1ccc(C)c(S(=O)(=O)N(C)C)c1	–	inconclusive: 6.31 µM [activator, single point]
COCCNC(=O)c1cc2c(s1)-c1ccc(Cl)cc1SC2	–	inconclusive: 5.62 µM [activator, partial curve, poor fit]
COc1cc(/C=C/c2ccc(/C=C/c3cc(OC)c(OC)c(OC)c3)cc2)cc(OC)c1OC	–	inconclusive: 7.94 µM [inhibitor, partial curve, poor fit]
COc1cccc(C(CNC(=O)C2CCN(C(=O)Nc3ccccc3)CC2)N(C)C)c1 (stereo not drawn)	–	inconclusive: 35.5 µM [inhibitor, single point]
COCCNC(=O)C1CCN(Cc2cccc(OCc3ccccc3)c2)CC1	–	inconclusive: 35.5 µM [inhibitor, single point]
CC(=O)NBr	–	inconclusive: 6.31 µM [inhibitor, partial curve]
CC1CCCCC1NCC(=O)NCc1ccc(F)cc1 (stereo not drawn)	–	inconclusive: 35.5 µM [inhibitor, single point]
Cc1ccc(NC(=O)c2ncc(Cl)c(Cl)c2Cl)cc1C	inactive: 8.98% [at 46.1 µM]	–
O=C(Nc1nc(-c2ccccn2)cs1)c1ccc(Br)s1	–	inconclusive: 6.51 µM [inhibitor, partial curve]
CCN(CCN1CCCC1)C(=O)c1cc(COc2ccccc2SC)on1	–	inconclusive: 35.5 µM [inhibitor, single point]

No new results follow: an excerpt of the list.
Structure (SMILES)	activity change, negative = inhibition	Potency
COc1cc(C(=O)OCCCN2CCCN(CCCOC(=O)c3cc(OC)c(OC)c(OC)c3)CC2)cc(OC)c1OC	–	active: 5.17 µM and active: 6.31 µM
Nc1ccc(-c2nc3ncccc3o2)c(Cl)c1	inactive: -25.4% [at 46.1 µM]	–
Nc1nc(SCC(=O)NCCC(c2ccccc2)c2ccccc2)n[nH]1	–	inconclusive: 20 µM [activator, single point]
CN1CCN(C(=O)C2CCC(=O)N(CCc3cccc(F)c3)C2)CC1 (stereo not drawn)	inactive: 12.8%	–

The results go on.

Structure (SMILES)	activity change, negative = inhibition	Potency
CCc1nc2ccc(C(=O)N3CCN(c4ccccc4)CC3)cc2nc1CC	–	inactive
Cc1ccc(C)n1Cc1ccc(C(=O)O)cc1	–	active: 9.2 µM
CCn1c(SCC(=O)Nc2ccc(Cl)cc2)nc2nc3c(cc2c1=O)CCCC3	inactive: -22.8%	–
COc1ccc2c(c1)CCc1c(C(=O)Nc3ccc(F)c(Cl)c3)noc1-2	inactive: -12.3% [at 46.1 µM]	–
COC(=O)c1nnn(CC(=O)NC(=O)Nc2cccc(C)c2C)c1C(=O)OC	–	inconclusive: 1.41 µM [inhibitor, partial curve, poor fit]
Cn1c(=O)c2c(nc(N3CCCCCC3)n2CC(O)COc2ccccc2)n(C)c1=O (stereo not drawn)	inactive: 9.45%	–
CC1CCc2nc(NC(=O)CN3CCOCC3)sc2C1 (stereo not drawn)	–	inconclusive: 14.1 µM [activator, single point]
Cc1c(OC(C)C(=O)NCCCN2CCOCC2)ccc2c1oc(=O)c1ccccc12 (stereo not drawn)	–	inconclusive: 5.62 µM [inhibitor, single point]
CCCCOc1ccccc1C1C(C(=O)OC)=CN(CC)C=C1C(=O)OC	inactive: -26%	–
COc1ccc(CCNC(=O)Nc2ccc([N+](=O)[O-])cc2)cc1OC	–	inconclusive: 35.5 µM [inhibitor, single point]
CN1C(=O)C(=O)N(CC(=O)N2CCc3ccccc32)C1=O	–	inconclusive: 7.08 µM [activator, partial curve, poor fit]
O=C(NCCCN1CCCC1)c1ccc(CS(=O)(=O)c2c(Cl)cccc2Cl)o1	–	inconclusive: 1.12 µM [inhibitor, partial curve, poor fit]
CCOCCOC(=O)c1[nH]c2c(c1C)C(=O)CC(c1cc(OC)c(OC)c(OC)c1)C2 (stereo not drawn)	–	inconclusive: 8.91 µM [inhibitor, partial curve, poor fit]
Cc1nc(N2C(=O)c3oc4ccccc4c(=O)c3C2c2cccc(OCCC(C)C)c2)sc1C (stereo not drawn)	inactive: 7.99% [at 46.1 µM]	–
CC(C)c1ccc(/C=C/c2ccc(=O)n(C)n2)cc1	–	inconclusive: 11.2 µM [inhibitor, single point]
Nc1ccccc1C(=O)NCc1ccco1	–	inactive
CCCOc1c(Br)cc(C(=O)OCC(=O)NC(=O)c2cccn2C)cc1OC	–	inconclusive: 31.6 µM [activator, single point]
CCN(CC)c1ccc(/C=N/NC(=S)NCc2ccccc2)cc1	–	inconclusive: 20 µM [inhibitor, partial curve, poor fit]
CCOP(=O)(OCC)/C(=N/OC(=O)c1ccc(Cl)cc1Cl)C(N)=O	inactive: 27% [at 46.1 µM]	–
O=C(NC1CCCCC1)C(c1ccccc1)N(Cc1cccnc1)C(=O)c1csnn1 (stereo not drawn)	–	inconclusive: 0.562 µM [activator, full curve, poor fit]
CCOc1ccccc1NC(=O)C1CCCN(S(=O)(=O)c2c(C)[nH]c(=O)[nH]c2=O)C1 (stereo not drawn)	–	inconclusive: 35.5 µM [inhibitor, single point] and inconclusive: 562 nM [activator, full curve, poor fit]
CC(=O)c1cccc(NC(=O)NC2CC3CCCC(C2)N3CC(C)C)c1 (stereo not drawn)	–	inconclusive: 23.1 µM [inhibitor, partial curve, poor fit]
